{"sequences": {"note": "The chains behind the UniProt entries cited, without tags or fusion partners. Residues count along the entry.", "UniProt A1Z0Q5, residues 26-394": "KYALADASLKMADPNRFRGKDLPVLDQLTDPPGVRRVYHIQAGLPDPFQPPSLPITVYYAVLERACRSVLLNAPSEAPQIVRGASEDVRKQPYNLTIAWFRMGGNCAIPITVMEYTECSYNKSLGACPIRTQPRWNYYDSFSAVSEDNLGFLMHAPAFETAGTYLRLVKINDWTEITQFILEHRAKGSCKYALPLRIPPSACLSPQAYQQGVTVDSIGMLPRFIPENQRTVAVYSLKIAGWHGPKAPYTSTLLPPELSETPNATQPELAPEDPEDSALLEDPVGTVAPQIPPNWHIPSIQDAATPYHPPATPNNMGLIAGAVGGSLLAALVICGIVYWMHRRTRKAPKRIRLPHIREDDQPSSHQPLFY"}, "source": "paper PMC11998518", "binders": {"B1": {"name": "soluble ectodomain form of nectin-1 (amino acids Gln 31-Thr 334) with a C-terminal 6x-His tag (receptor, UniProt Q15223 31-334)", "chain": "QVVQVNDSMYGFIGTDVVLHCSFANPLPSVKITQVTWQKSTNGSKQNVAIYNPSMGVSVLAPYRERVEFLRPSFTDGTIRLSRLELEDEGVYICEFATFPTGNRESQLNLTVMAKPTNWIEGTQAVLRAKKGQDDKVLVATCTSANGKPPSVVSWETRLKGEAEYQEIRNPNGTVTVISRYRLVPSREAHQQSLACIVNYHMDRFKESLTLNVQYEPEVTIEGFDGNWYLQRMDVKLTCKADANPPATEYHWTTLNGSLPKGVEAQNRTLFFKGPINYSLAGTYICEATNPIGTRSGQVEVNIT"}}, "key": {"[1]": {"target": "HSV-1 glycoprotein D (gD) in the virion envelope of HSV-1 KOS (HSV-1 (strain KOS)) (UniProt A1Z0Q5)", "assay": "co-sedimentation; HSV-1 ΔgC or gCR virions pre-incubated with 20 µg anti-gD MAb MC14 or DL11 (1 h, 37°C), then 15 µg soluble nectin-1 for 2 h at 4°C; 60%-30%-10% sucrose gradient, virus band dot-blotted and probed with anti-6x-His antibody; only the binder purified"}, "[2]": {"target": "HSV-1 glycoprotein D (gD) in the virion envelope of HSV-1 KOS (HSV-1 (strain KOS)) (UniProt A1Z0Q5)", "assay": "ELISA; virus ELISA (vELISA): VP5 equivalents of HSV-1 gCR or ΔgC virions bound to a MaxiSorp plate, fixed with 4% paraformaldehyde, blocked with 10% BSA; His-tagged soluble nectin-1 in 10-fold dilutions from 1 µM, 2 h at room temperature; detected with anti-6x-His-HRP; only the binder purified"}}, "note": "Results are given in words; binding and its absence hold for the method and conditions named. For some assays here: Binding seen in cells or lysates may run through a third protein. Some results given as binding are weak or reduced against the parent protein; the word gives no strength. Tags and fused reporters may be left off the sequences shown."}
{"binder": "B1", "values": [{"measurement": "binding", "setting": "[1]", "result": "binds"}, {"measurement": "binding", "setting": "[2]", "result": "binds"}]}
